# At least one compound was matched to its structure with a doubt left.
# Test system: group O red blood cells (RBCs)
# Assay: Diamed gel-card agglutination of group O RBCs transformed at 37° C. with synthetic glycolipids
# Assay type: cell-based, human
# Design: Albaclone anti-A, Diamed / Bioclone anti-A, Diamed / Agglutination, Diamed gel-cards, Albaclone anti-A / Agglutination, Diamed gel-cards, Bioclone anti-A / Agglutination, Diamed gel-cards, Albaclone anti-B: scale not given here
# Experimental: Washed packed group O red blood cells (RBCs) (3 parts by volume) and the synthetic glycolipid solution (1 part by volume, varying concentrations) were added to an eppendorf tube. The tube was incubated in a 37° C. waterbath for one hour, mixing every 15 minutes. […]
# Tube serology and Diamed gel-card results for RBCs transformed with the different synthetic molecule constructs are provided in Table 38. Results for the stability of the RBCs transformed with the different synthetic glycolipids at different concentrations are provided in Tables 39 to 44.
structure (smiles),measurement,setting,value
CCCCCCCC/C=C\CCCCCCCC(=O)OC[C@H](COP(=O)(O)OCCNC(=O)CCCCC(=O)NCCCO[C@@H]1O[C@H](CO)[C@H](O)[C@H](O[C@H]2O[C@H](CO)[C@H](O)[C@H](O)[C@H]2NC(C)=O)[C@H]1O[C@@H]1O[C@@H](C)[C@@H](O)[C@@H](O)[C@@H]1O)OC(=O)CCCCCCC/C=C\CCCCCCCC [Atri-sp-Ad-DOPE (I)],"Agglutination, Diamed gel-cards, Bioclone anti-A","0.1 mg/mL, Day 57, Cellstab",4+
same,"Agglutination, Diamed gel-cards, Albaclone anti-A","0.1 mg/mL, Day 63, Cellstab",4+/3+
same,"Agglutination, Diamed gel-cards, Bioclone anti-A","0.1 mg/mL, Day 63, Cellstab",4+
same,"Agglutination, Diamed gel-cards, Albaclone anti-A","0.1 mg/mL, Day 71, Cellstab",4+/3+
same,"Agglutination, Diamed gel-cards, Bioclone anti-A","0.1 mg/mL, Day 71, Cellstab",4+
same,"Agglutination, Diamed gel-cards, Albaclone anti-A","0.1 mg/mL, Day 86, Cellstab",4+/3+
same,"Agglutination, Diamed gel-cards, Bioclone anti-A","0.1 mg/mL, Day 86, Cellstab",4+
same,"Albaclone anti-A, Diamed",0.25 mg/mL,4+
same,"Bioclone anti-A, Diamed",0.25 mg/mL,4+
same,"Agglutination, Diamed gel-cards, Albaclone anti-A","0.25 mg/mL, Day 2, Alsevers",4+
same,"Agglutination, Diamed gel-cards, Bioclone anti-A","0.25 mg/mL, Day 2, Alsevers",4+
same,"Agglutination, Diamed gel-cards, Albaclone anti-A","0.25 mg/mL, Day 2, Cellstab",4+
same,"Agglutination, Diamed gel-cards, Bioclone anti-A","0.25 mg/mL, Day 2, Cellstab",4+
same,"Agglutination, Diamed gel-cards, Albaclone anti-A","0.25 mg/mL, Day 10, Alsevers",4+
same,"Agglutination, Diamed gel-cards, Bioclone anti-A","0.25 mg/mL, Day 10, Alsevers",4+
same,"Agglutination, Diamed gel-cards, Albaclone anti-A","0.25 mg/mL, Day 10, Cellstab",4+
same,"Agglutination, Diamed gel-cards, Bioclone anti-A","0.25 mg/mL, Day 10, Cellstab",4+
same,"Agglutination, Diamed gel-cards, Albaclone anti-A","0.25 mg/mL, Day 17, Alsevers",4+
same,"Agglutination, Diamed gel-cards, Bioclone anti-A","0.25 mg/mL, Day 17, Alsevers",4+
same,"Agglutination, Diamed gel-cards, Albaclone anti-A","0.25 mg/mL, Day 17, Cellstab",4+
same,"Agglutination, Diamed gel-cards, Bioclone anti-A","0.25 mg/mL, Day 17, Cellstab",4+
same,"Agglutination, Diamed gel-cards, Albaclone anti-A","0.25 mg/mL, Day 24, Alsevers",4+
same,"Agglutination, Diamed gel-cards, Bioclone anti-A","0.25 mg/mL, Day 24, Alsevers",4+
same,"Agglutination, Diamed gel-cards, Albaclone anti-A","0.25 mg/mL, Day 24, Cellstab",4+
same,"Agglutination, Diamed gel-cards, Bioclone anti-A","0.25 mg/mL, Day 24, Cellstab",4+
same,"Agglutination, Diamed gel-cards, Albaclone anti-A","0.25 mg/mL, Day 45, Alsevers",4+
same,"Agglutination, Diamed gel-cards, Bioclone anti-A","0.25 mg/mL, Day 45, Alsevers",4+
same,"Agglutination, Diamed gel-cards, Albaclone anti-A","0.25 mg/mL, Day 45, Cellstab",4+
same,"Agglutination, Diamed gel-cards, Bioclone anti-A","0.25 mg/mL, Day 45, Cellstab",4+
same,"Agglutination, Diamed gel-cards, Albaclone anti-A","0.25 mg/mL, Day 59, Cellstab",4+
same,"Agglutination, Diamed gel-cards, Bioclone anti-A","0.25 mg/mL, Day 59, Cellstab",4+
same,"Agglutination, Diamed gel-cards, Albaclone anti-A","0.25 mg/mL, Day 73, Cellstab",4+
same,"Agglutination, Diamed gel-cards, Bioclone anti-A","0.25 mg/mL, Day 73, Cellstab",4+
same,"Agglutination, Diamed gel-cards, Albaclone anti-A","0.25 mg/mL, Day 88, Cellstab",4+
same,"Agglutination, Diamed gel-cards, Bioclone anti-A","0.25 mg/mL, Day 88, Cellstab",4+
same,"Agglutination, Diamed gel-cards, Albaclone anti-A","0.5 mg/mL, Day 2, Alsevers",4+
same,"Agglutination, Diamed gel-cards, Bioclone anti-A","0.5 mg/mL, Day 2, Alsevers",4+
same,"Agglutination, Diamed gel-cards, Albaclone anti-A","0.5 mg/mL, Day 2, Cellstab",4+
same,"Agglutination, Diamed gel-cards, Bioclone anti-A","0.5 mg/mL, Day 2, Cellstab",4+
same,"Agglutination, Diamed gel-cards, Albaclone anti-A","0.5 mg/mL, Day 10, Alsevers",4+
same,"Agglutination, Diamed gel-cards, Bioclone anti-A","0.5 mg/mL, Day 10, Alsevers",4+
same,"Agglutination, Diamed gel-cards, Albaclone anti-A","0.5 mg/mL, Day 10, Cellstab",4+
same,"Agglutination, Diamed gel-cards, Bioclone anti-A","0.5 mg/mL, Day 10, Cellstab",4+
same,"Agglutination, Diamed gel-cards, Albaclone anti-A","0.5 mg/mL, Day 17, Alsevers",4+
same,"Agglutination, Diamed gel-cards, Bioclone anti-A","0.5 mg/mL, Day 17, Alsevers",4+
same,"Agglutination, Diamed gel-cards, Albaclone anti-A","0.5 mg/mL, Day 17, Cellstab",4+
same,"Agglutination, Diamed gel-cards, Bioclone anti-A","0.5 mg/mL, Day 17, Cellstab",4+
same,"Agglutination, Diamed gel-cards, Albaclone anti-A","0.5 mg/mL, Day 24, Alsevers",4+
same,"Agglutination, Diamed gel-cards, Bioclone anti-A","0.5 mg/mL, Day 24, Alsevers",4+
same,"Agglutination, Diamed gel-cards, Albaclone anti-A","0.5 mg/mL, Day 24, Cellstab",4+
same,"Agglutination, Diamed gel-cards, Bioclone anti-A","0.5 mg/mL, Day 24, Cellstab",4+
same,"Agglutination, Diamed gel-cards, Albaclone anti-A","0.5 mg/mL, Day 45, Alsevers",4+
same,"Agglutination, Diamed gel-cards, Bioclone anti-A","0.5 mg/mL, Day 45, Alsevers",4+
same,"Agglutination, Diamed gel-cards, Albaclone anti-A","0.5 mg/mL, Day 45, Cellstab",4+
same,"Agglutination, Diamed gel-cards, Bioclone anti-A","0.5 mg/mL, Day 45, Cellstab",4+
same,"Agglutination, Diamed gel-cards, Albaclone anti-A","0.5 mg/mL, Day 59, Alsevers",4+
same,"Agglutination, Diamed gel-cards, Bioclone anti-A","0.5 mg/mL, Day 59, Alsevers",4+
same,"Agglutination, Diamed gel-cards, Albaclone anti-A","0.5 mg/mL, Day 59, Cellstab",4+
same,"Agglutination, Diamed gel-cards, Bioclone anti-A","0.5 mg/mL, Day 59, Cellstab",4+
same,"Agglutination, Diamed gel-cards, Albaclone anti-A","0.5 mg/mL, Day 73, Cellstab",4+
same,"Agglutination, Diamed gel-cards, Bioclone anti-A","0.5 mg/mL, Day 73, Cellstab",4+
same,"Agglutination, Diamed gel-cards, Albaclone anti-A","0.5 mg/mL, Day 88, Cellstab",4+
same,"Agglutination, Diamed gel-cards, Bioclone anti-A","0.5 mg/mL, Day 88, Cellstab",4+
same,"Agglutination, Diamed gel-cards, Albaclone anti-A","1 mg/mL, Day 2, Alsevers",4+
same,"Agglutination, Diamed gel-cards, Bioclone anti-A","1 mg/mL, Day 2, Alsevers",4+
same,"Agglutination, Diamed gel-cards, Albaclone anti-A","1 mg/mL, Day 2, Cellstab",4+
same,"Agglutination, Diamed gel-cards, Bioclone anti-A","1 mg/mL, Day 2, Cellstab",4+
same,"Agglutination, Diamed gel-cards, Albaclone anti-A","1 mg/mL, Day 10, Alsevers",4+
same,"Agglutination, Diamed gel-cards, Bioclone anti-A","1 mg/mL, Day 10, Alsevers",4+
same,"Agglutination, Diamed gel-cards, Albaclone anti-A","1 mg/mL, Day 10, Cellstab",4+
same,"Agglutination, Diamed gel-cards, Bioclone anti-A","1 mg/mL, Day 10, Cellstab",4+
same,"Agglutination, Diamed gel-cards, Albaclone anti-A","1 mg/mL, Day 17, Alsevers",4+
same,"Agglutination, Diamed gel-cards, Bioclone anti-A","1 mg/mL, Day 17, Alsevers",4+
same,"Agglutination, Diamed gel-cards, Albaclone anti-A","1 mg/mL, Day 17, Cellstab",4+
same,"Agglutination, Diamed gel-cards, Bioclone anti-A","1 mg/mL, Day 17, Cellstab",4+
same,"Agglutination, Diamed gel-cards, Albaclone anti-A","1 mg/mL, Day 24, Alsevers",4+
same,"Agglutination, Diamed gel-cards, Bioclone anti-A","1 mg/mL, Day 24, Alsevers",4+
same,"Agglutination, Diamed gel-cards, Albaclone anti-A","1 mg/mL, Day 24, Cellstab",4+
same,"Agglutination, Diamed gel-cards, Bioclone anti-A","1 mg/mL, Day 24, Cellstab",4+
same,"Agglutination, Diamed gel-cards, Albaclone anti-A","1 mg/mL, Day 45, Alsevers",4+
same,"Agglutination, Diamed gel-cards, Bioclone anti-A","1 mg/mL, Day 45, Alsevers",4+
same,"Agglutination, Diamed gel-cards, Albaclone anti-A","1 mg/mL, Day 45, Cellstab",4+
same,"Agglutination, Diamed gel-cards, Bioclone anti-A","1 mg/mL, Day 45, Cellstab",4+
same,"Agglutination, Diamed gel-cards, Albaclone anti-A","1 mg/mL, Day 59, Alsevers",4+
same,"Agglutination, Diamed gel-cards, Bioclone anti-A","1 mg/mL, Day 59, Alsevers",4+
same,"Agglutination, Diamed gel-cards, Albaclone anti-A","1 mg/mL, Day 59, Cellstab",4+
same,"Agglutination, Diamed gel-cards, Bioclone anti-A","1 mg/mL, Day 59, Cellstab",4+
same,"Agglutination, Diamed gel-cards, Albaclone anti-A","1 mg/mL, Day 73, Cellstab",4+
same,"Agglutination, Diamed gel-cards, Bioclone anti-A","1 mg/mL, Day 73, Cellstab",4+
same,"Agglutination, Diamed gel-cards, Albaclone anti-A","1 mg/mL, Day 88, Cellstab",4+
same,"Agglutination, Diamed gel-cards, Bioclone anti-A","1 mg/mL, Day 88, Cellstab",4+

# — patent US10858384B2, “Synthetic molecule constructs” (KODE BIOTECH LIMITED, priority 2004, dated 2020)
